{"sequences": {"note": "Protein sequences, listed by entry. Tags and fused reporters are not part of them. Lines headed by an entry give the natural chain unless they say otherwise; changes in a name come on top.", "UniProt P18054": "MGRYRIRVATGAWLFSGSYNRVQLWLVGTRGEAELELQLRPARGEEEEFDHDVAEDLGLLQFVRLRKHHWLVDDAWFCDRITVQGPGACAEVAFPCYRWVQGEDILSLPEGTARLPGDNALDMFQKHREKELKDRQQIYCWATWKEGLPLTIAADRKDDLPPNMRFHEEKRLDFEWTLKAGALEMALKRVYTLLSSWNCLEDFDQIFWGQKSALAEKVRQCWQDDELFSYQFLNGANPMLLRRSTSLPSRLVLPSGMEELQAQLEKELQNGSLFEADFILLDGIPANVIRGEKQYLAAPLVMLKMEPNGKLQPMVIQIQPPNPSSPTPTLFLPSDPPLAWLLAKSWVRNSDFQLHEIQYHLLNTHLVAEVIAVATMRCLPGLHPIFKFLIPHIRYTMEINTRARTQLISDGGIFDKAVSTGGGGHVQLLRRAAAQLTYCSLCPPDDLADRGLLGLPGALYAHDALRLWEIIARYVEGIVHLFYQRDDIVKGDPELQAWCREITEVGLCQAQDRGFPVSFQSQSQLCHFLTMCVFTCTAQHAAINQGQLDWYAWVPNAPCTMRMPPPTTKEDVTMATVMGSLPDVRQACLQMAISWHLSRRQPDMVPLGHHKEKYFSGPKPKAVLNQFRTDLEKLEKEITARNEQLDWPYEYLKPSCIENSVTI"}, "source": "PubChem BioAssay AID1671190", "about": "(National Center for Advancing Translational Sciences (NCATS), 2021)", "note": "Screen size: about 580,000 compounds; about 6,100 (1.1%) were called active. The inconclusive results got no clear call from the source; some entries with a clear call stand among them for comparison. Calls come from the whole dose curve; as a rule, active = well fitted inhibition curve with a large enough effect; inconclusive = small, poorly fitted or top-dose-only effect, or another doubt; inactive = no such curve, though single readings can be large or run the other way. A potency beside an inconclusive call is a rough fit, not a confirmed value. % is set by controls: 0 for no effect and ±100 for the full control effect; potency is the fitted concentration of half-maximal effect."}
{"target": "Polyunsaturated fatty acid lipoxygenase ALOX12 (Homo sapiens) (UniProt P18054)", "assay": "Primary qHTS assay for inhibitors of human arachidonate 12S-lipoxygenase (ALOX12): Round 2", "conditions": "purified 12hLO, xylenol orange hydroperoxide absorbance; activity change, negative = inhibition: at 108 µM (top of the series) unless noted", "method_in_brief": "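Hydroperoxide product was detected by ferrous iron/xylenol orange as the 573 to 405 nm absorbance ratio. Arachidonic acid at 40 uM (final) was turned over for 30 min at room temperature by 150 nM human 12hLO, pH 7.0 Hepes buffer, after 15 min compound preincubation.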"}
{"molecule": "COc1ccccc1-c1c(C(F)(F)F)oc2cc(OC(=O)C3CC3)ccc2c1=O", "activity change, negative = inhibition": "inactive: -14.6%"}
{"molecule": "CN(C)c1cc[n+](CC(=O)Nc2cccc([N+](=O)[O-])c2)cc1", "activity change, negative = inhibition": "inactive: -0.777%"}
{"molecule": "O=C(COc1ccccc1)Nc1cccc2ncccc12", "activity change, negative = inhibition": "inactive: 6.92%"}
{"molecule": "COc1ccc(-c2cc3c(=O)n(CCNC(=O)c4ccccn4)ccn3n2)cc1", "Potency": "inconclusive: 25.1 µM [inhibitor, partial curve, poor fit]"}
{"molecule": "CCOC(=O)c1nc(Nc2ccccc2CC)c2ccccc2n1", "activity change, negative = inhibition": "inactive: -4.38%"}
{"molecule": "CC1S/C(=N/N=C/c2ccco2)N(Cc2ccccc2)C1=O", "note": "(stereo not given)", "Potency": "inconclusive: 28.2 µM [inhibitor, partial curve, poor fit]"}
{"molecule": "Cc1cc(C)c2cc(C#N)c(NCCCNC(=O)CCC(=O)O)nc2c1", "Potency": "inconclusive: 28.2 µM [inhibitor, full curve, poor fit]"}
{"molecule": "C=CCNC(=S)NCc1ccccc1", "activity change, negative = inhibition": "inactive: 0.985%"}
{"molecule": "FC(F)C(F)(F)Oc1cccc(Nc2nccn3c(-c4ccc5ccccc5c4)cnc23)c1", "activity change, negative = inhibition": "inconclusive: -48% [inhibitor]"}
{"molecule": "Cc1cc(S(=O)(=O)NCC(c2ccccc2)c2ccccc2)ccc1-n1cnnn1", "activity change, negative = inhibition": "inactive: -0.879%"}
{"molecule": "Cc1cccc(-c2nc(SCc3noc(CCC(=O)Nc4ccc5ccccc5c4)n3)n[nH]2)c1", "activity change, negative = inhibition": "inactive: -19%"}
{"molecule": "Clc1cccc(N/N=C/c2ccncc2)c1", "Potency": "inconclusive: 50.1 µM [inhibitor, partial curve, poor fit]"}
{"molecule": "CCCCNC(=O)Nc1ncn[nH]1", "activity change, negative = inhibition": "inactive: 1.12%"}
{"molecule": "COc1ccc(CCN2CCCC(CN(C)Cc3cc(OC)ccc3OC)C2)cc1", "note": "(stereo not given)", "Potency": "inconclusive: 79.4 µM [inhibitor, partial curve, poor fit]"}
{"molecule": "Cc1cc(=O)oc2cc(OCC(=O)NCCc3ccccc3)ccc12", "Potency": "inconclusive: 2.24 µM [inhibitor, single point]"}
{"molecule": "O=[N+]([O-])c1ccc(O)c(/C=N/NC(=S)Nc2ccc(Cl)cc2Cl)c1", "Potency": "inconclusive: 141 µM [inhibitor, single point]"}
{"molecule": "CCc1nc2nc(C)cc(Nc3cccc(C)c3C)n2n1", "Potency": "inconclusive: 126 µM [inhibitor, single point]"}
{"molecule": "O=C(c1cccc(F)c1)N1CCC(O)(c2cccnc2)CC1", "activity change, negative = inhibition": "inactive: 0%"}
{"molecule": "C=CCNC(=S)N1CCN(Cc2ccccc2)CC1", "Potency": "inconclusive: 3.16 µM [inhibitor, full curve, poor fit]"}
{"molecule": "O=C(Cc1nn[nH]n1)NCCC1=CCCCC1", "Potency": "inconclusive: 1.26 µM [inhibitor, full curve, poor fit]"}
{"molecule": "O=C(O)COc1c(Cl)cc(/C=C2/NC(=O)NC2=O)cc1Cl", "activity change, negative = inhibition": "inactive: -41.9%"}
{"molecule": "CC(C)CNS(=O)(=O)c1ccc(CCC(=O)N2CCC(C(N)=O)CC2)cc1", "activity change, negative = inhibition": "inactive: 8.1%"}
{"molecule": "O=C(O)c1ccccc1C(=O)Nc1cc(C(F)(F)F)ccc1N1CCCC1", "activity change, negative = inhibition": "inactive: 0%"}
{"molecule": "O=C(O)c1ccc(-c2ccccc2)o1", "Potency": "inconclusive: 0.0891 µM [inhibitor, full curve, poor fit]"}
{"molecule": "Cc1ccc(/C=N/n2cc(-c3ccccc3)[nH]c2=S)s1", "activity change, negative = inhibition": "inactive: -30.6%"}
{"molecule": "CC(C)CCNC(=S)Nc1ccc(Cl)cc1Cl", "Potency": "inconclusive: 39.8 µM [inhibitor, partial curve, poor fit]"}
{"molecule": "CCN(Cc1ccc(C)cc1)Cc1cc(=O)oc2ccc(C)cc12", "Potency": "inconclusive: 35.5 µM [inhibitor, partial curve, poor fit]"}
{"molecule": "Cc1ccccc1CNCCN1CCCC1", "Potency": "inconclusive: 7.94 µM [inhibitor, full curve]"}
{"molecule": "O=C(NCc1ccco1)c1ccccc1-c1nc(-c2ccccc2)no1", "activity change, negative = inhibition": "inactive: -6.44%"}
{"molecule": "CCN1CCN(c2ccc(S(=O)(=O)N3CCCCC3)cc2NC(=O)/C=C/c2ccc([N+](=O)[O-])cc2)CC1", "Potency": "inconclusive: 79.4 µM [inhibitor, partial curve, poor fit]"}
{"molecule": "COc1ccc(/C=N/OC(=O)c2ccc(Cl)cc2)c(Cl)c1OC", "Potency": "inconclusive: 100 µM [inhibitor, partial curve, poor fit]"}
{"molecule": "Cc1ccc(NC(=O)C2(C)CCN2C(C)C)cc1C", "note": "(stereo not given)", "Potency": "inconclusive: 3.55 µM [inhibitor, full curve, poor fit]"}
{"molecule": "CN(C)CCCNc1oc(-c2ccco2)nc1S(=O)(=O)c1ccc2c(c1)OCCO2", "Potency": "inconclusive: 17.8 µM [inhibitor, full curve, poor fit]"}
{"molecule": "Cn1cc(-c2nc3cncnc3n(Cc3ccccc3Cl)c2=O)c2ccccc21", "Potency": "inconclusive: 31.6 µM [inhibitor, single point]"}
{"molecule": "Cc1ccccc1NC(=O)CCNS(=O)(=O)c1cccc2nsnc12", "Potency": "inconclusive: 112 µM [inhibitor, single point]"}
{"molecule": "C=CCC(C=C)[N+]1(CC(=O)OC)CCCCC1", "note": "(stereo not given)", "Potency": "inconclusive: 35.5 µM [inhibitor, partial curve]"}
{"molecule": "Cc1cc(Cl)ccc1OCC(=O)NNC(=O)C1CCCO1", "note": "(stereo not given)", "Potency": "inconclusive: 158 µM [inhibitor, single point]"}
{"molecule": "O=C1N(c2ccc(Cl)cc2)C(c2ccccc2)N2CCCN12", "note": "(stereo not given)", "Potency": "inconclusive: 39.8 µM [inhibitor, partial curve, poor fit]"}
{"molecule": "CCOc1cc(Cl)c(S(=O)(=O)n2ccnc2)cc1Cl", "Potency": "inconclusive: 22.4 µM [inhibitor, partial curve, poor fit]"}
{"molecule": "COc1ccc(N2CCC(CNC(=S)Nc3c(C)cc(C)cc3C)C2)cc1", "note": "(stereo not given)", "Potency": "inconclusive: 44.7 µM [inhibitor, partial curve, poor fit]"}
{"molecule": "Cc1c(Cl)cnc(NC(=O)COC(=O)c2ccc3ncsc3c2)c1Cl", "Potency": "inconclusive: 50.1 µM [inhibitor, partial curve, poor fit]"}
{"molecule": "C=CCOC(=O)COc1ccc2c(C)c(C)c(=O)oc2c1", "activity change, negative = inhibition": "inactive: -0.341%"}
{"molecule": "CC(C)(C)OC(=O)NCCCCCNC(=O)c1ncn(Cc2ccccc2)c1C(=O)NCCCCCNC(=O)OC(C)(C)C", "Potency": "inconclusive: 39.8 µM [inhibitor, partial curve, poor fit]"}
{"molecule": "Cc1ccccc1OCCC(=O)OCC(=O)Nc1ncc(Cl)cc1Cl", "Potency": "inconclusive: 31.6 µM [inhibitor, partial curve, poor fit]"}
{"molecule": "O=c1oc2ccccc2cc1-c1nc2ccccc2s1", "Potency": "inconclusive: 39.8 µM [inhibitor, partial curve, poor fit]"}
